The results in this text go back to PubChem BioAssay AID662 (National Center for Advancing Translational Sciences (NCATS), 2007).

The list shows a part of the results. Shown are side measurements of this screen, not its main read-out; they come without a call. The list favours compounds with an active or inconclusive main result. Words in brackets tell the shape of the fitted curve; partial curves, single points and poor fits give uncertain potencies.

The nature of this test: Cell signaling CRE-BLA (Fsk stim). As to conditions: CHO CRE-bla reporter (cAMP response element driving beta-lactamase), forskolin EC10, beta-lactamase ratio; measured here: 460 nm blue channel. A digest of the protocol: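 CRE-bla CHO reporter cells treated with compound titration plus EC10 NKH 477 (water-soluble forskolin), incubated 3 h at 37 °C; CCF4 loading 2 h at room temperature, 460/530 nm emission ratio read, AC50 values derived for positive or negative modulators.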
With `CC1CN(Cc2ccc(C#N)cc2Cl)CC(C)O1` (stereo not drawn), the AC50 was 5.01 µM [rising, single point]. The result for `O=C(Cn1cnc2c(nnn2-c2ccc(F)cc2)c1=O)N1CCCc2ccccc21` reads 1.26 µM [falling, partial curve]. Regarding `COc1ccc(S(=O)(=O)Nc2ccc(F)c(F)c2)cc1Cl`, the half-maximal activity concentration (AC50) was 0.00316 µM [falling, full curve, poor fit]. Under `O=C1c2cccc3c(N4CCCCC4)ccc(c23)C(=O)N1c1ccccn1` stands 20 µM [falling, single point]; under `COc1ccccc1-c1nnc(SCC(=O)NCc2c(C)c(Cl)cc(C(C)C)c2O)o1`, 25.1 µM [falling, single point]. Take `Cc1nc2sc(C)c(C)c2c(=O)[nH]1`: the AC50 was 12.6 µM [rising, partial curve].

As for `Cn1c(=O)c2c(nc(NCc3ccccc3)n2Cc2ccc(F)cc2)n(C)c1=O`, the AC50 was 3.16 µM [rising, partial curve]. As to `O=C(OCc1c(Cl)cccc1Cl)c1ccccn1`, the AC50 was 5.01 µM [falling, single point]. The result for `COC(=O)COc1ccc(C(=O)OC)cc1` reads 5.01 µM [rising, single point]; that for `Cn1c(SC2=CS(=O)(=O)c3ccccc32)nc2ccccc21`, 5.01 µM [falling, full curve]. Under `Cn1c(C(=O)NCC2CCCO2)cc2c(=O)n(C)c3ccccc3c21` (stereo not drawn) stands 3.98 µM [rising, full curve]; under `Cc1cc2ccccc2c(=O)n1CC(=O)NCC(=O)N1CCN(c2ccccc2)CC1`, 0.02 µM [falling, full curve]. Under `COc1ccccc1CNC(=O)c1cnc2ccccn2c1=O` stands 12.6 µM [rising, partial curve]; under `CC1=C(C(=O)Nc2cc(C)ccn2)C(c2ccc(C)cc2)C2=C(CCCC2=O)N1` (stereo not drawn), 12.6 µM [rising, single point]; under `COc1ccc(Cc2nn3c(-c4cc(OC)c(OC)c(OC)c4)nnc3s2)cc1`, 5.01 µM [rising, partial curve]. As to `C=CCn1c(Cc2cccs2)nnc1SCC(=O)Nc1cccc(OC)c1`, the AC50 was 25.1 µM [rising, single point]. Regarding `Cc1cc(-n2c(=O)c(C#N)cc3c(=O)n4ccccc4nc32)no1`, the AC50 is 7.94 µM [rising, partial curve]. The result for `COc1ccccc1CNc1ncnc2ccc(-c3cccnc3)cc12` reads 2.51 µM [rising, full curve]; that for `CCOC(=O)c1c(NC(=O)C(F)(OC)C(F)(F)F)sc(C(=O)N2CCCCC2)c1C` (stereo not drawn), 10 µM [rising, partial curve]. As to `COc1ccc(-c2nn3c(-c4cccc(C)c4)nnc3s2)cc1OC`, the AC50 was 5.01 µM [rising, partial curve]. Under `CC1CCN(c2oc(-c3ccccc3F)nc2C#N)CC1` stands 3.98 µM [rising, full curve]. The result for `COc1ccc(N2CCN(C(=O)CSc3ccccc3)CC2)cc1` reads 0.398 µM [falling, partial curve]. Under `Cc1cc2oc(=O)cc(CN3CCCCC3)c2cc1C(C)C` stands 2.51 µM [rising, single point]; under `O=C(Nc1ccc(N2CCCC2)c(Cl)c1)c1ccco1`, 0.631 µM [rising, single point]; under `O=C(NC(C(=O)c1ccccc1)N1CCOCC1)c1cccs1` (stereo not drawn), 0.1 µM [falling, full curve]. For the molecule `CCOC(=O)C1CCCn2c1nc1sc3c(c1c2=O)CCCC3` (stereo not drawn), the AC50 was 25.1 µM [rising, single point].

For `Cc1cccc(NCc2ccccc2O)c1`, the AC50 was 0.398 µM [falling, partial curve]. Under `CN(C)c1nc(N)nc(CSc2nc3cc(Cl)ccc3o2)n1` stands 2.51 µM [rising, full curve]; under `O=C(c1cccc(F)c1)N1CCN(S(=O)(=O)c2ccccc2)CC1`, 12.6 µM [rising, single point]; under `Cc1nc2cnc(N3CCOCC3)nc2n(CCC#N)c1=O`, 25.1 µM [rising, single point]. The result for `O=C(O)/C=C1\CCCc2ccccc2[C@H]1O` reads 31.6 µM [falling, single point]; that for `CC(=O)N1[C@H](C)C=C[C@]1(Cc1ccccc1)C(=O)NCc1ccc(C)o1`, 12.6 µM [falling, single point]. The result for `COc1ccc(OC)c(CNc2nc3ccccc3n2CCN2CCCCC2)c1` reads 3.16 µM [falling, partial curve]; that for `CC(C)(C)NC[C@H](O)COc1cccc2[nH]c(=O)[nH]c12`, 31.6 µM [falling, single point]. `Cn1c(=O)c(-c2ccc(F)cc2)nc2cncnc21`: the AC50 was 12.6 µM [rising, single point]. Take `CC(NC(=O)c1ccc(F)cc1)C(c1cccs1)N1CCN(C)CC1` (stereo not drawn): the AC50 is 1 µM [rising, partial curve].

With `CNc1nnc(CSc2nc3ccccc3s2)s1`, the AC50 is 12.6 µM [rising, single point]. Under `CC1CCN(c2nc3ccccc3nc2C(C#N)C(=O)OC2CCCCC2)CC1` (stereo not drawn) stands 12.6 µM [rising, single point]; under `CC(C)CCn1c(N)c(S(=O)(=O)c2cccs2)c2nc3ccccc3nc21`, 10 µM [rising, partial curve]; under `CC(=O)Nc1ccc(-c2cn3cccnc3n2)cc1`, 0.0794 µM [falling, full curve]. The result for `Cc1ccsc1C(=O)OCC(=O)NCC1CCCO1` (stereo not drawn) reads 3.98 µM [falling, single point].

`N=C(N)c1ccc(-c2ccc(-c3ccc(C(=N)N)cc3)o2)cc1`: the half-maximal activity concentration (AC50) is 1.58 µM [rising, partial curve, poor fit]. Regarding `Cc1cc(Nc2nnnn2-c2ccccc2)n(-c2ccc(Cl)cc2)n1`, the AC50 is 3.16 µM [falling, full curve]. The result for `COC(=O)[C@@]1(Cc2ccccc2)[C@H]2c3cc(C(=O)N(C)C)n(Cc4ccc(OC)c(OC)c4)c3C[C@H]2CN1C(=O)c1ccccc1` reads 2 µM [rising, full curve]; that for `CN1CCN(c2ncc3nc(-c4cn(C)c5ccccc45)c(=O)n(C)c3n2)CC1`, 10 µM [rising, partial curve]; that for `Cn1c(=N)n(CC(=O)C(C)(C)C)c2ccccc21`, 10 µM [rising, partial curve]. The result for `CCCOc1ccc2oc(=O)c3c(c2c1)CCCN3C(=O)CN1CCN(C(=O)c2ccco2)CC1` reads 12.6 µM [rising, single point].

As for `COc1cc(C2CC(=O)N3CN(Cc4ccco4)CSC3=C2C#N)ccc1OCc1ccccc1` (stereo not drawn), the half-maximal activity concentration (AC50) is 12.6 µM [falling, partial curve]. The result for `O=C(Cc1cccs1)N1CCCC(c2nc3c(nnn3Cc3ccccc3Cl)c(=O)[nH]2)C1` (stereo not drawn) reads 20 µM [rising, single point]; that for `CCOC(=O)c1c(NC(=O)COC)sc2c1CCCC2`, 15.8 µM [rising, single point]. Take `Cc1cccc(NC(=O)c2ccccc2O)c1C`: the AC50 was 2.51 µM [rising, partial curve, poor fit]. Under `O=C(NCc1ccco1)C1Cc2ccccc2CN1S(=O)(=O)c1ccccc1F` (stereo not drawn) stands 5.01 µM [falling, partial curve]; under `Cn1c(=O)c2c(nc(NCCc3ccccc3)n2Cc2ccccc2)n(C)c1=O`, 15.8 µM [falling, partial curve, poor fit]; under `CCCS(=O)(=O)NCCc1cc2cc(C)c(C)cc2[nH]c1=O`, 3.98 µM [falling, single point].

For the molecule `COc1ncc2nc(-c3ccc(Cl)cc3)c(=O)n(CCc3ccccc3)c2n1`, the AC50 is 20 µM [rising, single point].

Take `O=C(O)CCC(=O)Nc1ccc2c(c1)oc1ccccc12`: the concentration at half-maximal activity (AC50) is 12.6 µM [rising, single point].

For the molecule `COc1ccc(NS(=O)(=O)c2cc(C(=O)O)ccc2C)cc1`, the AC50 was 5.01 µM [falling, single point]. The result for `O=C1Nc2ccccc2SC(c2ccccc2)C1O` (stereo not drawn) reads 25.1 µM [falling, single point]; that for `CCOC(=O)c1[nH]c(C)c(C(=O)OCCN2C(=O)c3ccccc3C2=O)c1C`, 1.58 µM [rising, full curve, poor fit]. In the case of `COc1ccc(NC(=O)c2cccs2)cc1OC`, the AC50 was 10 µM [rising, single point]. Turning to `COc1ccc(Br)cc1C(=O)NCc1cccnc1`, the AC50 was 5.01 µM [rising, partial curve]. The result for `CCN(CC)C(=O)CSc1nc2cccnc2n1-c1ccccc1OC` reads 12.6 µM [rising, partial curve, poor fit]; that for `CC1CCc2c(sc3ncnc(SCC(=O)N4CCN(C(=O)c5ccco5)CC4)c23)C1` (stereo not drawn), 25.1 µM [falling, single point]; that for `COc1cc2c(cc1NC(=O)COC(=O)Cn1cnc3ccccc31)oc1ccccc12`, 3.98 µM [falling, partial curve].

With `Cc1cc(C)n(CC(O)CN2C(=O)NC(C)(C)C2=O)n1` (stereo not drawn), the AC50 is 3.98 µM [falling, single point]. The result for `COC(=O)[C@@]1(Cc2ccc(F)cc2)[C@H]2c3cc(C(=O)N(C)C)n(Cc4ccc(C(F)(F)F)nc4)c3C[C@H]2CN1C(=O)c1ccccc1` reads 15.8 µM [rising, partial curve, poor fit]. The result for `O=C(CCCCn1c(=O)[nH]c2ccccc2c1=O)N1CCN(c2cccc(C(F)(F)F)c2)CC1` reads 31.6 µM [falling, partial curve, poor fit]. The result for `CCc1c(C)sc(NC(=O)c2cccs2)c1C(=O)OC(C)C` reads 2.51 µM [rising, full curve].

By AC50 is commonly meant the concentration at which the activity in the assay is half-maximal.
